For assay [1], the target named is T1, E1 ubiquitin-activating enzyme UBA6 (endogenous) (human (endogenous in HEK293T, human fibroblasts and iPSC-derived neurons)) (UniProt A0AVT1).
T1 sequence: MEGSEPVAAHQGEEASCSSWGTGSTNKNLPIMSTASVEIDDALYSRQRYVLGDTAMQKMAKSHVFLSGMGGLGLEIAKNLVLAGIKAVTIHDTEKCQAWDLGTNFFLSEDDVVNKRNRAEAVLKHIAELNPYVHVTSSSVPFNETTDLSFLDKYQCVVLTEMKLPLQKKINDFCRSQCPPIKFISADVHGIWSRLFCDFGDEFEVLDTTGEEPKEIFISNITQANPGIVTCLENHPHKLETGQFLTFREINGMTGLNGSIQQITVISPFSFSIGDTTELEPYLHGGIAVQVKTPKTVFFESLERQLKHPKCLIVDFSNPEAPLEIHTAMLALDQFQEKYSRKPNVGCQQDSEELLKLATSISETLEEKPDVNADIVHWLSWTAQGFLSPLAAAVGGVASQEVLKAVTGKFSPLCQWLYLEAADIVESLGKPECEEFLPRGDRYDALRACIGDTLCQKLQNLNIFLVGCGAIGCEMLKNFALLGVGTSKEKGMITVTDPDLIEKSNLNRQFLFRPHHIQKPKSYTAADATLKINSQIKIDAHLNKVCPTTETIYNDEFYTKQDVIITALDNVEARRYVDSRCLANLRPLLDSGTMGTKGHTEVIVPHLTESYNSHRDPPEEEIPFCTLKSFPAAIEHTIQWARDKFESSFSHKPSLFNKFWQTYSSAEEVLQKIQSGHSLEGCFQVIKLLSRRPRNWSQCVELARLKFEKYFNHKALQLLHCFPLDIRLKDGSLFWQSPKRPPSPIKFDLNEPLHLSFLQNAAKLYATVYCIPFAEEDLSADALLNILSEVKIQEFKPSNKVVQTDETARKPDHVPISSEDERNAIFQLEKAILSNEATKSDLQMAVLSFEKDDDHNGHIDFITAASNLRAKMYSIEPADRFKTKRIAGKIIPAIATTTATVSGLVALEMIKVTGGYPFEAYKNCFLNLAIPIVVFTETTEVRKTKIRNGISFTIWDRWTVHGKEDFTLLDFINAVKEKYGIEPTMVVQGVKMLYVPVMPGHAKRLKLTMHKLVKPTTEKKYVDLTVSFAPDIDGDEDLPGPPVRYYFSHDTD
The experiment in a line: co-IP; nuclear fraction (LaminB1 enriched) of transfected HEK293T cells; immunoprecipitation of endogenous UBA6, unrelated IgG as control; blot with anti-HA.

By UniProt entry, the sequences of proteins in these tests, tags left out. Where a name states a change or a piece, a line headed by the entry shows the natural chain unless it says otherwise.
UniProt P70217: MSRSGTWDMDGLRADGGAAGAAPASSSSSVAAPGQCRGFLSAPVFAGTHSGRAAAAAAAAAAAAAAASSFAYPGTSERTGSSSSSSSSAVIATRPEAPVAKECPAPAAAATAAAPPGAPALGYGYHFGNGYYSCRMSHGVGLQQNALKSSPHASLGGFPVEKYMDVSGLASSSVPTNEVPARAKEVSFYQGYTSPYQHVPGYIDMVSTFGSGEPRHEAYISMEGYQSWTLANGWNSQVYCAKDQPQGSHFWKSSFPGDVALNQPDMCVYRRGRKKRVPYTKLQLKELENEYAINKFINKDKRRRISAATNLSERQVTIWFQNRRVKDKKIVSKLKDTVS
UniProt Q99453: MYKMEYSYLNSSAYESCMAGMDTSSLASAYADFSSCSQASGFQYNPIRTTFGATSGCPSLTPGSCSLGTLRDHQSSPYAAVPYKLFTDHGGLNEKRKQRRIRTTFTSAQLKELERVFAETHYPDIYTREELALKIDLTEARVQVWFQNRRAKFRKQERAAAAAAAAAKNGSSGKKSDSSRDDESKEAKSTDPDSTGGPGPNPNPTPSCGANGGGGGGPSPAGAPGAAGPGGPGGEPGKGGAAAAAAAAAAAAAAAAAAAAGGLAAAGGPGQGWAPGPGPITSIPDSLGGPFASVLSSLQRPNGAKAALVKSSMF
UniProt Q13950: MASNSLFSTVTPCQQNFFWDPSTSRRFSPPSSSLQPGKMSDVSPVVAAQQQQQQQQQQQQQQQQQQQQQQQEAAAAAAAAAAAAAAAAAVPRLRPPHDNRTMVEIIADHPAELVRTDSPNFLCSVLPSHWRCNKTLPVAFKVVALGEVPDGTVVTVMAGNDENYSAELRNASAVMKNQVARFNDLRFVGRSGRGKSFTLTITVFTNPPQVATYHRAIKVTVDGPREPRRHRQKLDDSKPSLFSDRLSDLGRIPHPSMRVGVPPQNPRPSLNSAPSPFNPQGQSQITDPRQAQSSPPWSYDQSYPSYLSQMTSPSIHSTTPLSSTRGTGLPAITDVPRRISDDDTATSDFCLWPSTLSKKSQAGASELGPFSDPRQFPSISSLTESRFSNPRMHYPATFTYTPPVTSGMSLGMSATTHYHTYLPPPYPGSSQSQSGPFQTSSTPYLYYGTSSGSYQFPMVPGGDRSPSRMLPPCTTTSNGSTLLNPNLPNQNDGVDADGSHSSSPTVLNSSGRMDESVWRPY

Assay [2] concerns the target T1, E1 ubiquitin-activating enzyme UBA6 (endogenous) (human (endogenous in HEK293T, human fibroblasts and iPSC-derived neurons)). The experiment in a line: co-IP; cytoplasmic fraction (GAPDH enriched, IP buffer with 0.1% NP40) of transfected HEK293T cells; immunoprecipitation of endogenous UBA6, unrelated IgG as control; blot with anti-HA.
For assay [3] the target is unchanged. Put plainly: co-IP; whole-cell lysates of transfected HEK293T cells; immunoprecipitation of endogenous UBA6 with anti-UBA6; IP buffer 20 mM Tris-HCl pH 7.2, 150 mM NaCl, 2 mM MgCl2, 0.5% NP-40; pre-clearing with beads for isolated polyalanine stretches.
In assay [4] the target is T2, HA-tagged UBA6 wild type (pcDNA3.1-HA-UBA6) (UniProt A0AVT1).
T2 sequence: T1 sequence
Put plainly: pull-down; lysates of HEK293T cells expressing HA-UBA6 and FLAG-USE1 incubated with recombinant TIG-mutant PHOX2B; anti-HA beads pull down UBA6, beads only as control; only the binder purified.

These are yes or no findings as the source states them, for the method shown. Binding seen in cells or lysates may run through a third protein. For some assays here: Binding can be weak; no strength is given. For some assays here: Sequences can lack the tags named with a protein.

We go through six substances from publication PMC10897158.

As for “HA-mutant HOXD13 (+10Ala) (from UniProt P70217)”, the binding result in assay [1] is on record as “no binding (only in the nuclear fraction)”; in assay [2], “binds”; in assay [3], “binds”.
Take “HA-mutant PABPN1 (+7 Ala) (bovine (humanized))”: the values for the binding result in assay [1], in assay [2] and in assay [3] were “no binding (only in the nuclear fraction)”, “binds” and “binds”, respectively.
Take “HA-mutant PHOX2B (+13Ala) (from UniProt Q99453)”: the binding entry in assay [1] is given as “no binding (only in the nuclear fraction)”; in assay [2] it was “binds”; in assay [3], “binds”.
With “HA-mutant RUNX2 (+12Ala) (from UniProt Q13950)”, the results for the binding entry in assay [1], in assay [2] and in assay [3] were “no binding (only in the nuclear fraction)”, “binds” and “binds”, respectively.
In the case of “mutant RUNX2 (+6Ala), HA-tagged (from UniProt Q13950)”, the binding entry in assay [3] was “binds”.
With “recombinant TIG-mutant PHOX2B (+13 Ala) (from UniProt Q99453)”, the binding result in assay [4] is “binds”.
